Patent EP4755878A1, “PHOTOCHROMIC COMPOUND, PHENOL DERIVATIVE, CURABLE COMPOSITION, OPTICAL ARTICLE, LENS, AND EYEGLASS” (TOKUYAMA CORPORATION, priority 2023, dated 2025)

Columns and labels:
Details in all cases: A35/A23 × 100, one value per compound
[1] = Photochromic properties of photochromic laminate (plastic lens) made by coating method; assay type: physicochemical
Text: First, the photochromic compound obtained in Example 1 above, a photoinitiator, and polymerizable compounds were mixed to obtain a curable composition.
As the polymerizable compounds, a blend of the following radically-polymerizable monomers in combination was used.
• Polyethylene glycol dimethacrylate (average molecular weight: 736): 42 parts by mass • Polyethylene glycol dimethacrylate (average molecular weight: 536): 12 parts by mass • Trimethylolpropane trimethacrylate: 38 parts by mass • γ-Methacryloyloxypropyltrimethoxysilane: 2 parts by mass • Glycidyl methacrylate: 1 part by mass.
Note that in the curable composition, the photochromic compound obtained in Example 1 above was added to be 0.25 mmol taking the total amount of the radically-polymerizable monomers as 100 g. The following were used as additives.
(stabilizer, Irganox 245): 1 part by mass Bis(1,2,2,6,6-pentamethyl-4-piperidyl) sebacate: 3 parts by mass Leveling agent from DuPont Toray Specialty Materials K.K. (L7001): 0.1 parts by mass.
Note that the above-mentioned additives are described with blending ratios taking a total of the radically-polymerizable monomers as 100 parts by mass.
Using this curable composition, a photochromic laminate was obtained by a lamination process described below with the polymerization described below being carried out.
First, a thiourethane plastic lens with a center thickness of 2 mm and a refractive index of 1.60 was prepared as an optical substrate. Note that the thiourethane plastic lens had been alkaline-etched beforehand in a 10% aqueous sodium hydroxide solution at 50°C for 5 minutes, and then thoroughly washed with distilled water.
A spin coater (1H-DX2, manufactured by MIKASA CO., LTD) was used to coat a surface of the above-mentioned plastic lens with a moisture-curable primer (product name: TR-SC-P, manufactured by Tokuyama Corporation) at a rotation speed of 70 rpm for 15 seconds, followed by at 1000 rpm for 10 seconds. Then, about 2 g of the photochromic curable composition obtained as above was spin-coated at a rotation speed of 60 rpm for 40 seconds, followed by at 600 rpm for 10 to 20 seconds so as to achieve a photochromic coating layer with a film thickness of 40 µm.
The lens having the surface coated with the photochromic curable composition (photochromic coating layer) was irradiated with light for 90 seconds in a nitrogen gas atmosphere using a metal halide lamp with an output of 200 mW/cm^2 to cure the coating film. The coating was then further heated at 110°C for 1 hour to produce a photochromic laminate with a photochromic layer.
Photochromic laminates were produced using the photochromic compounds obtained in Examples 2 to 19 in the same manner as in Example 20.
Photochromic laminates were obtained in the same manner as in Example 20 using photochromic compounds represented by the following formulas (A) to (F). [drawing 143] [drawing 144] [drawing 145] [drawing 146] [drawing 147] [drawing 148] [drawing 149] [drawing 150]
The resulting photochromic laminates were evaluated by the methods described below.
Table 3 summarizes the results of Examples 20, 32, and 34, and Comparative Examples 1 to 6, and Table 4 summarizes the results of Examples 21 to 31, 33, and 35 to 38. The relationship between the fading half-life at 23°C and the color development ratio at the higher temperature of the photochromic laminates according to Examples and Comparative Examples are shown in a graph in FIG. 1.
Photochromic laminates were formed using the photochromic compound obtained in Examples 61 to 71 in the same manner as in Example 20.

[2] = Photochromic properties of photochromic cured product made by kneading method; assay type: physicochemical
Text: First, the photochromic compound obtained in Example 1, additives, and polymerizable compounds were mixed to obtain a curable composition. As the polymerizable compounds, a blend of the following polymerizable monomers in combination was used. • 1,3-Bis(isocyanatomethyl)cyclohexane: 36.7 parts by mass Pentaerythritol tetrakis(3-mercaptopropionate): 39.4 parts by mass • Polyoxyethylene polyoxypropylene lauryl ether (WONDERSURF 140 from Aoki Oil Industrial Co., Ltd.): 17.4 parts by mass 1-Decanethiol: 2.8 parts by mass • RX-1 prepared according to the method described in Patent Document 12: 3.8 parts by mass Note that in the curable composition, the photochromic compound was added to be 0.106 mmol taking the total amount of the polymerizable monomers as 100 g.
The following additives were used. Dimethyltin dichloride: 0.05 parts by mass • Irganox 245 from BASF Japan Ltd.: 0.1 parts by mass • 2-Ethylhexyl 4-methoxycinnamate: 0.6 parts by mass
The prepared curable composition was sufficiently degassed, and then injected into a glass mold provided with a gap of 1 mm, and the curable composition was polymerized via casting polymerization. […] After the polymerization, the cured product was removed from the glass mold, to obtain photochromic cured product having a thickness of 1 mm. The resulting photochromic cured product was evaluated in the same manner as in Example 23.
(Examples 51 to 60, and Comparative Examples 11 to 14) Photochromic cured products were formed using the photochromic compound shown in Table 6 in the same manner as in Example 50.

[3] = Photochromic properties of photochromic layer (binder sheet) made by binder method

| SMILES | Color development ratio at high temperature [1] | Color development ratio at high temperature [2] | Color development ratio at high temperature [3] |
| --- | --- | --- | --- |
| CCCCOc1ccc(C2(c3ccc(OC)cc3)C=Cc3c4c(c5ccc(C)cc5c3O2)-c2ccc(N3CCOc5ccccc53)cc2C4(CCCC(F)(F)F)CCCC(F)(F)F)cc1 (centres unmarked) [Formula (3-3)] | 77% | 78% | 75% |
| CCCCCCOc1ccc(C2(c3ccc(OCCCCCC)cc3)C=Cc3c4c(c5ccc(OC(F)(F)F)cc5c3O2)-c2ccc(N(C)c3ccc(C(F)(F)F)cc3)cc2C42CCC(CC)(CC)CC2)cc1 [Formula (6-3)] | 59% | – | – |
| CCCCOc1ccc(C2(c3ccc(OC)cc3)C=Cc3c4c(c5cc(-c6ccc(C(F)(F)F)cc6)c(OC)cc5c3O2)-c2ccc(N(C)c3ccccc3)cc2C4(CCC)CCC)cc1 (centres unmarked) [Formula (63-2)] | 70% | – | – |
| CCCC1(CCC)c2cc(N3CCCc4ccccc43)ccc2-c2c1c1c(c3cc(OC)ccc23)OC(c2ccc(OC)cc2)(c2ccc(OCCCO)cc2)C=C1 (centres unmarked) [Formula (17-3)] | 73% | – | – |
| CCCCC1(CCCC)c2cc(N(CC)c3ccccc3)ccc2-c2c1c1c(c3cc(C)c(-c4ccc(OC)cc4)cc23)OC(c2ccc(C)cc2)(c2ccc(N(C)c3ccccc3)cc2)C=C1 (centres unmarked) [Formula (12-5)] | 74% | 76% | 72% |
| COc1ccc(C2(c3ccc(OC)cc3)C=Cc3c4c(c5ccc(OC)cc5c3O2)-c2ccccc2C4(C)C)cc1 [Formula (A), reference compound] | 63% | 67% | 64% |
| COc1ccc(C2(c3ccc(OC)cc3)C=Cc3c4c(c5ccc(OC)cc5c3O2)-c2ccc(N3CCCCC3)cc2C4(C)C)cc1 [Formula (D), reference compound] | 75% | 80% | 75% |
| COCCCCC1(CCCCOC)c2cc(N(C)c3ccccc3)ccc2-c2c1c1c(c3cc(OC)c(OC)cc23)OC(c2ccc(OC)cc2)(c2ccc(OC)cc2)C=C1 [Formula (2-7)] | 75% | 77% | 72% |
| CCCOc1ccc(C2(c3ccc(OCCC)cc3)C=Cc3c4c(c5cc(N(C)c6ccccc6)c(OC)cc5c3O2)-c2ccc(N(C)c3ccccc3)cc2C4(CCC)CCC)cc1 [Formula (61-4)] | 75% | – | – |
| CCC1(CC)c2cc(N3CCOc4ccccc43)ccc2-c2c1c1c(c3cc(OC)ccc23)OC(c2ccc(OCCOC(=O)CCCCCCCCC(=O)OCCOc3ccc(C4(c5ccc(N6CCOCC6)cc5)C=Cc5c6c(c7ccc(OC)cc7c5O4)-c4ccc(N5CCOc7ccccc75)cc4C6(CC)CC)cc3)cc2)(c2ccc(N3CCOCC3)cc2)C=C1 (centres unmarked) [Formula (19-3)] | 64% | – | – |
| COc1ccc2c3c(c4c(c2c1)OC(c1ccc(F)cc1)(c1ccc(N2CCOCC2)cc1)C=C4)C(CCC(F)(F)F)(CCC(F)(F)F)c1cc(N(C)c2ccc(C)cc2)ccc1-3 (centres unmarked) [Formula (14-3)] | 71% | – | – |
| COc1ccc(C2(c3ccc(OC)cc3)C=Cc3c4c(c5ccc(OC)cc5c3O2)-c2ccc(N3CCOc5ccccc53)cc2C4(C)C)cc1 [Formula (13-2)] | 73% | 75% | 71% |
| CCC1(CC)c2cc(N(C)c3ccccc3)ccc2-c2c1c1c(c3cc(OC)c(-c4ccc(OC)cc4OC)cc23)OC(c2ccc(OC)cc2)(c2ccc(N3CCOCC3)cc2)C=C1 (centres unmarked) [Formula (67-2)] | 71% | – | – |
| CCCCCC1(CCCCC)c2cc(N3CCOc4ccccc43)ccc2-c2c1c1c(c3cc(OC)c(-c4ccc(N5CCOc6ccccc65)cc4)cc23)OC(c2ccc(OC)cc2)(c2ccc(OC)cc2)C=C1 [Formula (66-5)] | 80% | – | – |
| CCCOc1ccc(C2(c3ccc(OCCC)cc3)C=Cc3c4c(c5ccc(-c6ccc(OC)cc6OC)cc5c3O2)-c2ccc(N(C)c3ccc(F)cc3)cc2C4(CC)CC)cc1 [Formula (5-4)] | 75% | – | – |
| CCCCOCCC1(CCOCCCC)c2cc(N(c3ccccc3)c3ccc(C)cc3)ccc2-c2c1c1c(c3cc(OC)c(OC)cc23)OC(c2ccc(OC)cc2)(c2ccc(N3CCOCC3)cc2)C=C1 (centres unmarked) [Formula (68-2)] | 65% | – | – |
| COc1ccc(C2(c3ccc(OC)cc3)C=Cc3c4c(c5ccc(OC)cc5c3O2)-c2ccc(Oc3ccccc3)cc2C4(C)C)cc1 [Formula(E), reference compound] | 65% | – | – |
| COCCCC1(CCCOC)c2cc(N(c3ccccc3)c3ccccc3)ccc2-c2c1c1c(c3cc(OC)c(N4CCOCC4)cc23)OC(c2ccc(C)cc2)(c2ccc(N(C)c3ccccc3)cc2)C=C1 (centres unmarked) [Formula (69-2)] | 75% | – | – |
| COCCN(c1ccccc1)c1ccc2c(c1)C(CCOC)(CCOC)c1c3c(c4cc(C)c(N5CCOCC5)cc4c1-2)OC(c1ccc(OC)cc1)(c1ccc(OC)cc1)C=C3 [Formula (10-3)] | 67% | – | – |
| CCCCCCC1(CCCCCC)c2cc(N(c3ccccc3)c3ccccc3)ccc2-c2c1c1c(c3cc(OC)c(-c4ccccc4N4CCOCC4)cc23)OC(c2ccc(OC)cc2)(c2ccc(OC)c(F)c2)C=C1 (centres unmarked) [Formula (70-4)] | 81% | – | – |
| CCCC1(CCC)c2cc(N(C)c3ccccc3)ccc2-c2c1c1c(c3cc(OC)c(-c4ccc(N5CC(C)OC(C)C5)cc4)cc23)OC(c2ccc(N3CCOCC3)cc2)(c2ccc(OC)c(OC)c2)C=C1 (centres unmarked) [Formula (71-5)] | 82% | – | – |
| CCCCCCOc1ccc(C2(c3ccc(OCCCCCC)cc3)C=Cc3c4c(c5cc(N6CCC(C(F)(F)F)CC6)c(OC)cc5c3O2)-c2ccc(N(c3ccccc3)c3ccccc3)cc2C42CCC3(CCCCC3)CC2)cc1 [Formula (64-3)] | 71% | – | – |
| COCCOCCOCCC1(CCOCCOCCOC)c2cc(N(c3ccccc3)c3ccccc3)ccc2-c2c1c1c(c3cc(OC)c(-c4c(OC)cc(OC)cc4OC)cc23)OC(c2ccc(OC)cc2)(c2ccc(OC)cc2)C=C1 [Formula (62-5)] | 73% | – | – |
| COc1ccc(C2(c3ccc(N4CCOCC4)cc3)C=Cc3c4c(c5cc(Sc6c(C)cccc6C)c(OC)cc5c3O2)-c2ccc(N3CCOc5cc(F)ccc53)cc2C42CC(C)(C)CC(C)(C)C2)cc1 (centres unmarked) [Formula (11-4)] | 59% | – | – |
| COc1ccc(C2(c3ccc(OC)cc3)C=Cc3c4c(c5ccc(OC)cc5c3O2)-c2ccc(OC(F)(F)F)cc2C4(C)C)cc1 [Formula(F), reference compound] | 60% | – | – |
| CCCCOCCC1(CCOCCCC)c2cc(N(c3ccccc3)c3ccccc3)ccc2-c2c1c1c(c3cc(OC)c(N(C)c4ccc(C(F)(F)F)cc4)cc23)OC(c2ccc(OC)cc2)(c2ccc(OCCC)cc2)C=C1 (centres unmarked) [Formula (65-2)] | 67% | – | – |
